These are yes or no findings as the source states them, for the method shown. In cells and extracts the contact can be indirect. Some entries that bind do so weakly or less than the wild type.
Biological target: T1, OTU deubiquitinase 5 (human (endogenous in HPMECs)) (UniProt Q96G74)
T1 sequence: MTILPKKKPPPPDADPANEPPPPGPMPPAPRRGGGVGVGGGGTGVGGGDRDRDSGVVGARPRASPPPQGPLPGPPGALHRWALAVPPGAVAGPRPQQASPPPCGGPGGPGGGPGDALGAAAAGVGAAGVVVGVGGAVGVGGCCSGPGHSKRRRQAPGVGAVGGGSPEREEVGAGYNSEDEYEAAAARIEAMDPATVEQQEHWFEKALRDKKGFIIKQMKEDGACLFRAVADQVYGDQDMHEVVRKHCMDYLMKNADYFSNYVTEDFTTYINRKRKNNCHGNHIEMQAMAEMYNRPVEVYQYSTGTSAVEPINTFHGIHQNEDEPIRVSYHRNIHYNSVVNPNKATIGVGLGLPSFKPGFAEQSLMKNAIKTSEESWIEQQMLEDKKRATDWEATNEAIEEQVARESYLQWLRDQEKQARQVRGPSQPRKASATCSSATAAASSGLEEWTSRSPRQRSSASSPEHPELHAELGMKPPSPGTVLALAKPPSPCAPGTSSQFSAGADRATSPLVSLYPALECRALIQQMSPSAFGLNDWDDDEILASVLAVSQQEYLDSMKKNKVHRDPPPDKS
Experiment: co-IP; HPMECs co-cultured with SMφ-EVs; lysate; also done with or without Plantainoside D (PD) treatment (Fig. 8E, F; Fig. 9H)

binding: binds
B1: guanylate-binding protein 2 (protein, UniProt P32456 1-591)
chain: MAPEINLPGPMSLIDNTKGQLVVNPEALKILSAITQPVVVVAIVGLYRTGKSYLMNKLAGKKNGFSLGSTVKSHTKGIWMWCVPHPKKPEHTLVLLDTEGLGDIEKGDNENDSWIFALAILLSSTFVYNSMGTINQQAMDQLHYVTELTDRIKANSSPGNNSVDDSADFVSFFPAFVWTLRDFTLELEVDGEPITADDYLELSLKLRKGTDKKSKSFNDPRLCIRKFFPKRKCFVFDWPAPKKYLAHLEQLKEEELNPDFIEQVAEFCSYILSHSNVKTLSGGIPVNGPRLESLVLTYVNAISSGDLPCMENAVLALAQIENSAAVEKAIAHYEQQMGQKVQLPTETLQELLDLHRDSEREAIEVFMKNSFKDVDQMFQRKLGAQLEARRDDFCKQNSKASSDCCMALLQDIFGPLEEDVKQGTFSKPGGYRLFTQKLQELKNKYYQVPRKGIQAKEVLKKYLESKEDVADALLQTDQSLSEKEKAIEVERIKAESAEAAKKMLEEIQKKNEEMMEQKEKSYQEHVKQLTEKMERDRAQLMAEQEKTLALKLQEQERLLKEGFENESKRLQKDIWDIQMRSKSLEPICNIL
